No constants are given. Whether binding was seen depends on the method and setting. A result given as binding can be weak or reduced; the word gives no strength. Where a sequence is shown, tags or fusion partners need not be part of it.
Molecular target: T1, ORYZA SATIVA HOMEOBOX 15 (OSH15), yeast two-hybrid fusion (rice (Oryza sativa)) (UniProt O80416)
T1 sequence: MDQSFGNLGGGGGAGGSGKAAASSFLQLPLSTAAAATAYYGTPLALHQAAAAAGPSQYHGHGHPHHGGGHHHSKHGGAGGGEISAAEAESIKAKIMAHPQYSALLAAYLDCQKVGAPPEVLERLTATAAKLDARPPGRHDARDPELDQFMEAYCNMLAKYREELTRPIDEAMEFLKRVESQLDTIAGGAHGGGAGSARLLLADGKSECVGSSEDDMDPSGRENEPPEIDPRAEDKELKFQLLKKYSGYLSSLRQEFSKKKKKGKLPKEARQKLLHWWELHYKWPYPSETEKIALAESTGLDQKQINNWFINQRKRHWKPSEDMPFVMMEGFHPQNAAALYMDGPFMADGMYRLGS
Assay: two-hybrid; Golden Yeast System (Takara); yeast growing on SD/His–Ade–Leu–Trp– plates within 1 week counted as positive

binding: binds
Substance: C-terminus of DLT (containing a GRAS domain), yeast two-hybrid fusion (rice (Oryza sativa)) (domain or fragment)

Reference: paper PMC9516196
